Reference: the supplement of paper PMC10849652
This is one part of the list.

The chains behind the UniProt entries cited, without tags or fusion partners. Where a name states a change or a piece, a line headed by the entry shows the natural chain unless it says otherwise.
UniProt P16220: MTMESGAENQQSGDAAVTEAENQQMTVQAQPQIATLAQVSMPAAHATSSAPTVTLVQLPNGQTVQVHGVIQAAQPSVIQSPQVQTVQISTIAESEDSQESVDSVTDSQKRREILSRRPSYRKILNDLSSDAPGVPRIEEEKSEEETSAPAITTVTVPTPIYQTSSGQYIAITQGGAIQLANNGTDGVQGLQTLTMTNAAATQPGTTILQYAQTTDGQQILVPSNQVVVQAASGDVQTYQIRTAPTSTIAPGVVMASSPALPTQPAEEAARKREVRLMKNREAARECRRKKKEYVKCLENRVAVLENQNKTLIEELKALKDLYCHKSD
UniProt P13498: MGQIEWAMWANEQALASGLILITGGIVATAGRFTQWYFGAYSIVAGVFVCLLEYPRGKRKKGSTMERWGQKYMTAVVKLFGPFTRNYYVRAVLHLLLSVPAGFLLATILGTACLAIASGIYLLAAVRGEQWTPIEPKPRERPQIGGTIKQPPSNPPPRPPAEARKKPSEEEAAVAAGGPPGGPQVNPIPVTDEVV
UniProt Q9BZJ0: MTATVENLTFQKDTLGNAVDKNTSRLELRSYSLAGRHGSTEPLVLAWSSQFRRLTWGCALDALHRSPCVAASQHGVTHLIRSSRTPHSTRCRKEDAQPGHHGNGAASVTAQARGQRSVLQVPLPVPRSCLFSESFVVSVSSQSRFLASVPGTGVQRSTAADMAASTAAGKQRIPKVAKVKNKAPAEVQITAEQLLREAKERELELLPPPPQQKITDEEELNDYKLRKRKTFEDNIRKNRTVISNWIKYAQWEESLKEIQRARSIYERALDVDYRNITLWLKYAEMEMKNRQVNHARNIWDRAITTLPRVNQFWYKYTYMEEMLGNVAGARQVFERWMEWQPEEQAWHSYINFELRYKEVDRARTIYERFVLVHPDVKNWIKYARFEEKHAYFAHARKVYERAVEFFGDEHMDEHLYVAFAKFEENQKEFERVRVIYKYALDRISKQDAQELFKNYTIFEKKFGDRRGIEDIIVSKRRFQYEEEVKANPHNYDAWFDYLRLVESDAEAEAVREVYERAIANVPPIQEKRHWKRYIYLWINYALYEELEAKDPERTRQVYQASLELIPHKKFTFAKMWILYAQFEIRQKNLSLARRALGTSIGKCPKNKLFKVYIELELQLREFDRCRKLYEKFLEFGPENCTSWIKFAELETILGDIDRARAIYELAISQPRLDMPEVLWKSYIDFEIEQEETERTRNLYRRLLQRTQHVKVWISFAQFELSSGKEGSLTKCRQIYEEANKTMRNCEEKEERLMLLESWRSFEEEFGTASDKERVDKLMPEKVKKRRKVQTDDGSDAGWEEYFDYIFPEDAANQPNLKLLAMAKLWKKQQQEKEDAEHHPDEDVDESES
UniProt P02511: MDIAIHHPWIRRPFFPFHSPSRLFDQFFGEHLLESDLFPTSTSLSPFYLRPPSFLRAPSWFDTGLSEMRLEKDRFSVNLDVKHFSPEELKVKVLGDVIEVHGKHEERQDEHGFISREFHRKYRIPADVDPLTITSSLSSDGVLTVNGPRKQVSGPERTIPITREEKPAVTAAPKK
UniProt P0DMU9: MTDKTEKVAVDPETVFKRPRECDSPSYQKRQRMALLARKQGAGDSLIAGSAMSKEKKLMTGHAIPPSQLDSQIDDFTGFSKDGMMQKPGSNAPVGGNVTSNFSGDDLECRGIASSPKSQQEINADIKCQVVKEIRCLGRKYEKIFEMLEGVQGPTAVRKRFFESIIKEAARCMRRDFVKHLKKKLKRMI
UniProt Q8WUE5: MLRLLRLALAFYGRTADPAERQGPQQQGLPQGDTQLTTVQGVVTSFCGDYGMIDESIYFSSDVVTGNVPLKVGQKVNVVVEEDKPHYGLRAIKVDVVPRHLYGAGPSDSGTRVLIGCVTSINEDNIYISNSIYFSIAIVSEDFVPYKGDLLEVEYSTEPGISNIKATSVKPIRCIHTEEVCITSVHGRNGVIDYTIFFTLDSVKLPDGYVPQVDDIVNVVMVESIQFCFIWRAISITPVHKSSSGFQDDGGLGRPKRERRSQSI
UniProt Q05048: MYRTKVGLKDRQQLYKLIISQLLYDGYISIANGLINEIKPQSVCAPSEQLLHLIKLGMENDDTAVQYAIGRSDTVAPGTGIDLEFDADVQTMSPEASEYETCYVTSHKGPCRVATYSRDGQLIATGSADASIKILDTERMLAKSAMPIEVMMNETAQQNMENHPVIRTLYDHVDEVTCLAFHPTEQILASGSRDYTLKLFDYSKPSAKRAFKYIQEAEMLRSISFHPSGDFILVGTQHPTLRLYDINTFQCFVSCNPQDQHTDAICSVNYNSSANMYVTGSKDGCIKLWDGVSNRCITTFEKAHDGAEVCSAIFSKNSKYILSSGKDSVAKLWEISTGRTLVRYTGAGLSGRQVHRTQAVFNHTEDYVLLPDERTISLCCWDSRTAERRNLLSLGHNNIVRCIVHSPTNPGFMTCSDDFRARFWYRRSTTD
UniProt Q9P0U4, whole entry, looked up: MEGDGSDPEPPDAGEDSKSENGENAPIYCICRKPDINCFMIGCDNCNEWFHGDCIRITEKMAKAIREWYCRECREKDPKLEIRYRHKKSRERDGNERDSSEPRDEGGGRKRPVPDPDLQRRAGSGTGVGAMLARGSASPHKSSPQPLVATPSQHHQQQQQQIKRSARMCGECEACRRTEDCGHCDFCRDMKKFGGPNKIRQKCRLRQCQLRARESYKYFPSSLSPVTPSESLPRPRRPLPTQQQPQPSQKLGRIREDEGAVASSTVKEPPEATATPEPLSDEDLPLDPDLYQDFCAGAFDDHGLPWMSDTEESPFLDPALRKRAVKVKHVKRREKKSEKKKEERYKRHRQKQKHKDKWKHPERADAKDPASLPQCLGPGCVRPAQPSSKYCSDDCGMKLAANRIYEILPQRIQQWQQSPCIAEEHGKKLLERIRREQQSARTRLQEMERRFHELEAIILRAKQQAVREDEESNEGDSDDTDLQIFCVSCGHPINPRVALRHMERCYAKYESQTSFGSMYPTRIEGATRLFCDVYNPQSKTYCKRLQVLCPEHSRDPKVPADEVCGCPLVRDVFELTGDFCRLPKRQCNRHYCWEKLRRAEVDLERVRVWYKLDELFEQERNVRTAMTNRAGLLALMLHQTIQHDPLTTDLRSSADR
UniProt Q01459: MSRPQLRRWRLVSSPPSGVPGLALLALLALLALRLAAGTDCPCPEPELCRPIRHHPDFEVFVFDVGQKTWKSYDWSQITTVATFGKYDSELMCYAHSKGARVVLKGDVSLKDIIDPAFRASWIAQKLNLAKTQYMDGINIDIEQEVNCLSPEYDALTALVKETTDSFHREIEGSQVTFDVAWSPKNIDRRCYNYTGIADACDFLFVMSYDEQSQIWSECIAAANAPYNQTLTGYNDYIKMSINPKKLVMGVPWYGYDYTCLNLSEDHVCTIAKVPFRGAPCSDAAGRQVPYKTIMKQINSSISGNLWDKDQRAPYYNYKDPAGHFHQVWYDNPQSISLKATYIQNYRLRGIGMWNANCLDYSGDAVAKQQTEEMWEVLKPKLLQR
UniProt P10619: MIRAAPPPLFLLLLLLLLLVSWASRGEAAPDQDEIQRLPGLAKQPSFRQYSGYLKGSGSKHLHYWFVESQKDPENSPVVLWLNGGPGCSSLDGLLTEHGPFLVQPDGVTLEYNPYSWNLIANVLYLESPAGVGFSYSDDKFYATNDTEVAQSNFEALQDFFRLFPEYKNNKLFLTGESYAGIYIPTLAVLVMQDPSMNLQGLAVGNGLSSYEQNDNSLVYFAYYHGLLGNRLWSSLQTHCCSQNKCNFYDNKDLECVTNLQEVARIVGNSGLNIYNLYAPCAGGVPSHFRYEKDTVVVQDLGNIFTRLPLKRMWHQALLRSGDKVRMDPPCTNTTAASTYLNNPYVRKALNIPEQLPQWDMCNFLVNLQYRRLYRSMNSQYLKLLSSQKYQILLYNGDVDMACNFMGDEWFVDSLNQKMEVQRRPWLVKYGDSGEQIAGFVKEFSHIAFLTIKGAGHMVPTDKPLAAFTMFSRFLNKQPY
UniProt Q14999: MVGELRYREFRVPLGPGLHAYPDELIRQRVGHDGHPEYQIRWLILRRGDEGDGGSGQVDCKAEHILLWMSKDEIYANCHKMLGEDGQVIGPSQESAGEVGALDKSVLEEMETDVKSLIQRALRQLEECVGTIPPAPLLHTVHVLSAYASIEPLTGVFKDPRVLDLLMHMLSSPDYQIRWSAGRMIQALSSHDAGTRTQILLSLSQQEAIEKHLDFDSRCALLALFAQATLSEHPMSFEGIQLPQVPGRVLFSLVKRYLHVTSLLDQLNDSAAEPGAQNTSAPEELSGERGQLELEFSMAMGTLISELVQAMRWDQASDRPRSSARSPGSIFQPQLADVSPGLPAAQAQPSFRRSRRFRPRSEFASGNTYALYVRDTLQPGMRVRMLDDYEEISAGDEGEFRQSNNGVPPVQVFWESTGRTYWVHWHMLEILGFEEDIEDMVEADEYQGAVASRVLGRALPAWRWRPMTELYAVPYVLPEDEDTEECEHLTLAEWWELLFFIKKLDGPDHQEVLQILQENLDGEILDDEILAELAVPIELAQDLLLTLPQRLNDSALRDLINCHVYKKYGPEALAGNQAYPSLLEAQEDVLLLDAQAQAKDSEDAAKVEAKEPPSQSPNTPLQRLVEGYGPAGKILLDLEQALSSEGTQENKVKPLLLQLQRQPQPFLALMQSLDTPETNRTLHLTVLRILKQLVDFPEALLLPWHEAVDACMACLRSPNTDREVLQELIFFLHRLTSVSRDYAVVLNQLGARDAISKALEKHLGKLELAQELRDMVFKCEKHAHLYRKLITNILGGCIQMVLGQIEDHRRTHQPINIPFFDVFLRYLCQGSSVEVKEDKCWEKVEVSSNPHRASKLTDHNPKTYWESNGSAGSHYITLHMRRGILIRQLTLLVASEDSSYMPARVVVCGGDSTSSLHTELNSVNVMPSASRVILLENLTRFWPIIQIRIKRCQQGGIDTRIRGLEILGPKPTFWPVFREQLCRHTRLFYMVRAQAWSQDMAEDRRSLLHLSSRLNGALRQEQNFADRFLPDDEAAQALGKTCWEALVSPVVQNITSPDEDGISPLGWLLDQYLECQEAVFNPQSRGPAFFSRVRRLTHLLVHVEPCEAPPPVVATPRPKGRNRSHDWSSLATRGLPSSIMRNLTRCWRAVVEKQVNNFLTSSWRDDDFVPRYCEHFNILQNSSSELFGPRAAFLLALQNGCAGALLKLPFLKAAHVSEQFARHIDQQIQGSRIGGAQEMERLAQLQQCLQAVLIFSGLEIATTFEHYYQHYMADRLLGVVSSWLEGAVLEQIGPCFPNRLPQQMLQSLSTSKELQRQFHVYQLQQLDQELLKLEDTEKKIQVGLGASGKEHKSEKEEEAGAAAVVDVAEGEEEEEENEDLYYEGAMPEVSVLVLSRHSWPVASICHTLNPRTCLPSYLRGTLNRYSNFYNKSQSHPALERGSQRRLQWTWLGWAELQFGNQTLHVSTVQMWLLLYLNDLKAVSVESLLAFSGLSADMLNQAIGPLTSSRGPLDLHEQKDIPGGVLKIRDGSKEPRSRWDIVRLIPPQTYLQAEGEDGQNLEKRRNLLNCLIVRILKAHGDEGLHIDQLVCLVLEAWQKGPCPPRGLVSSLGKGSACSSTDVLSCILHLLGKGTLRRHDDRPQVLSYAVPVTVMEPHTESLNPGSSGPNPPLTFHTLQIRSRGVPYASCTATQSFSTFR
UniProt Q13620, whole entry, looked up: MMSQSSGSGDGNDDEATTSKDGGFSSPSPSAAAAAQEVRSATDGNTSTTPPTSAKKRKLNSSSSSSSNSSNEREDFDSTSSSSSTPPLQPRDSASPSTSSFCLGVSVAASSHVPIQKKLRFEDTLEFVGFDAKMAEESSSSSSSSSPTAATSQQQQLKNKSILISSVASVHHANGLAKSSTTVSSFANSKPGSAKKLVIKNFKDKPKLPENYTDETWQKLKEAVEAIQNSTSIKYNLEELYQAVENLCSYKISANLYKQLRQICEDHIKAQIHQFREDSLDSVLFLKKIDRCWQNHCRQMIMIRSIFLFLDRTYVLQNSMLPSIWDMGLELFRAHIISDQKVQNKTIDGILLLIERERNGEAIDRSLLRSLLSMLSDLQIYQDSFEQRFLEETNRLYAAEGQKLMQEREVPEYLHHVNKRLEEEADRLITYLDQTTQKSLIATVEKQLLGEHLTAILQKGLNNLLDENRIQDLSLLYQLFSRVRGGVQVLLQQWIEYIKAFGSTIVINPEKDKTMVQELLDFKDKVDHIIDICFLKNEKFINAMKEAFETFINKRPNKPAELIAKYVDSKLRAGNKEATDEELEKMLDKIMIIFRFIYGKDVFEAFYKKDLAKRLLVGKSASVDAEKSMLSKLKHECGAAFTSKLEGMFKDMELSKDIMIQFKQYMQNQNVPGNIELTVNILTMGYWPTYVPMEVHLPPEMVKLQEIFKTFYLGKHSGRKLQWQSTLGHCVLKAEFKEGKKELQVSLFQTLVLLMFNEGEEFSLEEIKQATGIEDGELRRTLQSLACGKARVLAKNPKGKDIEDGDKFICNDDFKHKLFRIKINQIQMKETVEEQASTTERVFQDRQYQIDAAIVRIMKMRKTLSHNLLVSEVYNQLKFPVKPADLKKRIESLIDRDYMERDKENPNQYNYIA

Columns and labels:
Assay in all cases: log2 fold change, soluble protein after heating vs DMSO (PISA); higher = thermal stabilisation; K562 lysate, 10 uM; active = over 0.2 and 3.5 SD of the protein, either way, in both replicates (recomputed)
[1] = compound: CCCS(=O)(=O)Nc1ccc(F)c(C(=O)c2c[nH]c3ncc(-c4ccc(Cl)cc4)cc23)c1F [vemurafenib]
How it was run: (§1)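 Soluble protein was defined as the supernatant remaining after 21,000xg for 90 min, following pooling of heated aliquots and adjustment to 0.5% NP-40 at 4°C. Before that, crude K562 extract at 1 mg/mL protein in PBS pH 7.4 with 1 mM MgCl2 was treated with 10 μM compound for 30 min and heated for 3 min across 48°C-58°C. Quantification used TMTpro 16plex LC-MS/MS with channel sums equalised, and values are log-two fold changes in thermal stability relative to solvent controls from duplicates.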

[2] = compound: CCCS(=O)(=O)Nc1ccc(F)c(C(=O)c2c[nH]c3ncc(Cl)cc23)c1F
How it was run: as §1

[3] = compound: CCN(CCCOc1ccc2c(Nc3cc(CC(=O)Nc4cccc(F)c4)[nH]n3)ncnc2c1)CCOP(=O)(O)O [barasertib]
How it was run: as §1

[4] = compound: CC[C@@H]1C(=O)N(C)c2cnc(Nc3ccc(C(=O)NC4CCN(C)CC4)cc3OC)nc2N1C1CCCC1
How it was run: as §1

[5] = compound: CC[C@@H]1C(=O)N(C)c2cnc(Nc3ccc(C(=O)N[C@H]4CC[C@H](N5CCN(CC6CC6)CC5)CC4)cc3OC)nc2N1C(C)C [volasertib]
How it was run: as §1

[6] = compound: CCn1c(C(=O)N(C2CC2)C2CC2)cc2c3c(ncn3C)c(Nc3cc(C)n(C)n3)nc21
How it was run: as §1

[7] = compound: CCn1cc(-c2ccnc3[nH]c(-c4cccc(CN(C)C)c4)cc23)c(-c2ccc(NC(=O)N(C)C)cc2)n1
How it was run: as §1

[8] = compound: CN1CCC(CNc2ccc3ncc(-c4cccc(OC(F)(F)F)c4)n3n2)CC1
How it was run: as §1

[9] = compound: CN1CCN(CCOc2cc(OC3CCOCC3)c3c(Nc4c(Cl)ccc5c4OCO5)ncnc3c2)CC1 [saracatinib]
How it was run: as §1

[10] = compound: CN1CCN(c2nc(C3=C(c4c[nH]c5ccccc45)C(=O)NC3=O)c3ccccc3n2)CC1 [sotrastaurin]
How it was run: as §1

Measured: log2 fold change

CSTF2T (UniProt Q9H0L4)
inactive: [1] -0.002 | [2] 0.002 | [3] 0.074 | [4] 0.023 | [5] 0.011 | [6] 0.002 | [7] -0.012 | [8] 0.028 | [9] -0.004 | [10] -0.002

CTNND1 isoform 3 (UniProt O60716)
inactive: [1] 0.06 | [2] 0.037 | [3] 0.036 | [4] -0.034 | [5] -0.098 | [6] 0.073 | [7] -0.032 | [8] 0.004 | [9] -0.012 | [10] 0.024

CUL5 (UniProt Q93034)
inactive: [1] -0.015 | [2] -0.006 | [3] 0.01 | [4] -0.009 | [5] 0.012 | [6] -0.002 | [7] -0.079 | [8] 0.038 | [9] -0.017 | [10] 0.015

CREB1 (UniProt P16220)
inactive: [1] -0.045 | [2] -0.017 | [3] -0.048 | [4] -0.007 | [5] -0.021 | [6] 0.048 | [7] 0.045 | [8] 0.006 | [9] 0.112 | [10] 0.025

CYBA (UniProt P13498)
inactive: [1] 0.01 | [2] 0.011 | [3] 0.001 | [4] -0.032 | [5] 0.04 | [6] 0.002 | [7] 0.018 | [8] 0.038 | [9] -0.011 | [10] -0.015

CRTAP (UniProt O75718)
inactive: [1] -0.036 | [2] 0.007 | [3] -0.061 | [4] -0.069 | [5] -0.012 | [6] 0.106 | [7] 0.026 | [8] 0 | [9] 0.034 | [10] 0.018

CTSH (UniProt P09668)
inactive: [1] 0.006 | [2] 0.002 | [3] 0.018 | [4] 0.107 | [5] 0.039 | [6] 0.01 | [7] 0.101 | [8] 0.009 | [9] -0.034 | [10] 0.004

CRNKL1 (UniProt Q9BZJ0)
inactive: [1] -0.038 | [2] -0.128 | [3] 0.024 | [4] -0.199 | [5] -0.044 | [6] -0.071 | [7] 0.096 | [8] -0.016 | [9] 0.083 | [10] -0.078

CTR9 (UniProt Q6PD62)
inactive: [1] -0.008 | [2] 0.002 | [3] 0.017 | [4] -0.015 | [5] -0.037 | [6] 0.021 | [7] -0.024 | [8] 0.003 | [9] 0.021 | [10] 0.001

CSE1L (UniProt P55060)
inactive: [1] -0.017 | [2] 0.007 | [3] -0.005 | [4] -0.059 | [5] -0.009 | [6] 0.03 | [7] -0.032 | [8] -0.011 | [9] 0.014 | [10] 0.012

CRYAB (UniProt P02511)
inactive: [1] -0.054 | [2] 0.105 | [3] 0.017 | [4] 0.247 | [5] -0.187 | [6] -0.255 | [7] -0.117 | [8] 0.046 | [9] -0.07 | [10] 0.005

Copied from the entries so far (8 entries):
CSTF2T (UniProt Q9H0L4)
inactive: [1] -0.002 | [2] 0.002 | [3] 0.074 | [4] 0.023 | [5] 0.011 | [6] 0.002 | [7] -0.012 | [8] 0.028 | [9] -0.004 | [10] -0.002

CTNND1 isoform 3 (UniProt O60716)
inactive: [1] 0.06 | [2] 0.037 | [3] 0.036 | [4] -0.034 | [5] -0.098 | [6] 0.073 | [7] -0.032 | [8] 0.004 | [9] -0.012 | [10] 0.024

CUL5 (UniProt Q93034)
inactive: [1] -0.015 | [2] -0.006 | [3] 0.01 | [4] -0.009 | [5] 0.012 | [6] -0.002 | [7] -0.079 | [8] 0.038 | [9] -0.017 | [10] 0.015

CREB1 (UniProt P16220)
inactive: [1] -0.045 | [2] -0.017 | [3] -0.048 | [4] -0.007 | [5] -0.021 | [6] 0.048 | [7] 0.045 | [8] 0.006 | [9] 0.112 | [10] 0.025

CYBA (UniProt P13498)
inactive: [1] 0.01 | [2] 0.011 | [3] 0.001 | [4] -0.032 | [5] 0.04 | [6] 0.002 | [7] 0.018 | [8] 0.038 | [9] -0.011 | [10] -0.015

CRTAP (UniProt O75718)
inactive: [1] -0.036 | [2] 0.007 | [3] -0.061 | [4] -0.069 | [5] -0.012 | [6] 0.106 | [7] 0.026 | [8] 0 | [9] 0.034 | [10] 0.018

CTSH (UniProt P09668)
inactive: [1] 0.006 | [2] 0.002 | [3] 0.018 | [4] 0.107 | [5] 0.039 | [6] 0.01 | [7] 0.101 | [8] 0.009 | [9] -0.034 | [10] 0.004

CRNKL1 (UniProt Q9BZJ0)
inactive: [1] -0.038 | [2] -0.128 | [3] 0.024 | [4] -0.199 | [5] -0.044 | [6] -0.071 | [7] 0.096 | [8] -0.016 | [9] 0.083 | [10] -0.078

Continuation.

CUL4A (UniProt Q13619)
inactive: [1] -0.017 | [2] 0.022 | [3] 0.017 | [4] 0.005 | [5] -0.031 | [6] -0.049 | [7] -0.035 | [8] 0.01 | [9] -0.01 | [10] 0

CYB5R1 (UniProt Q9UHQ9)
inactive: [1] -0.034 | [2] 0.031 | [3] 0.066 | [4] -0.044 | [5] -0.067 | [6] -0.031 | [7] 0.072 | [8] 0.053 | [9] 0.016 | [10] 0.007

CT45A10 (UniProt P0DMU9)
inactive: [1] -0.071 | [2] 0.012 | [3] -0.014 | [4] -0.013 | [5] 0.003 | [6] 0.068 | [7] 0.043 | [8] -0.01 | [9] 0.019 | [10] 0.04

CSTF2 (UniProt P33240)
active: [3] 0.27
inactive: [1] 0.011 | [2] -0.015 | [4] 0.062 | [5] -0.012 | [6] -0.037 | [7] -0.053 | [8] 0.042 | [9] 0.007 | [10] 0.038

CSRP1 (UniProt P21291)
inactive: [1] -0.006 | [2] -0.018 | [3] -0.022 | [4] 0.021 | [5] 0.029 | [6] -0.015 | [7] -0.071 | [8] 0.067 | [9] 0.023 | [10] -0.081

CT55 (UniProt Q8WUE5)
inactive: [1] -0.086 | [2] -0.101 | [3] 0.088 | [4] -0.087 | [5] 0.036 | [6] 0.041 | [7] -0.121 | [8] -0.001 | [9] -0.045 | [10] 0.1

CSTF1 (UniProt Q05048)
inactive: [1] 0.006 | [2] 0.005 | [3] -0.021 | [4] -0.037 | [5] 0.029 | [6] 0.043 | [7] 0.003 | [8] 0.095 | [9] -0.015 | [10] -0.057

CXXC1 isoform 2 (UniProt Q9P0U4)
inactive: [1] -0.029 | [2] -0.117 | [3] -0.02 | [4] -0.256 | [5] -0.027 | [6] 0.031 | [7] -0.072 | [8] 0.041 | [9] -0.066 | [10] -0.04

CRTC1 (UniProt Q6UUV9)
inactive: [1] 0.081 | [2] -0.068 | [3] -0.196 | [4] 0.051 | [5] 0.002 | [6] 0.044 | [7] 0.001 | [8] 0.054 | [9] 0.035 | [10] -0.073

CYB561 (UniProt P49447)
inactive: [1] -0.009 | [2] -0.004 | [3] -0.068 | [4] 0.083 | [5] 0.067 | [6] -0.197 | [7] -0.361 | [8] 0.121 | [9] -0.035 | [10] -0.045

CT47A1 (UniProt Q5JQC4)
inactive: [1] 0.071 | [2] 0.031 | [3] -0.012 | [4] 0.056 | [5] -0.023 | [6] -0.062 | [7] -0.073 | [8] -0.069 | [9] 0.084 | [10] 0.028

CTBS (UniProt Q01459)
inactive: [1] 0.051 | [2] -0.04 | [3] 0.059 | [4] 0.025 | [5] -0.054 | [6] -0.059 | [7] -0.006 | [8] -0.008 | [9] -0.01 | [10] 0.006

CTSZ (UniProt Q9UBR2)
inactive: [1] 0.014 | [2] -0.007 | [3] -0.022 | [4] -0.026 | [5] 0.014 | [6] 0.039 | [7] -0.084 | [8] 0.056 | [9] -0.102 | [10] 0.076

CSTF3 (UniProt Q12996)
inactive: [1] -0.042 | [2] 0.007 | [3] 0.032 | [4] -0.02 | [5] -0.045 | [6] 0.028 | [7] 0.019 | [8] -0.054 | [9] 0.017 | [10] 0.013

CUEDC2 (UniProt Q9H467)
inactive: [1] 0.06 | [2] 0.001 | [3] 0.026 | [4] 0.038 | [5] 0.027 | [6] -0.084 | [8] -0.07 | [9] 0.002 | [10] 0
active: [7] 0.694

CTSA (UniProt P10619)
inactive: [1] 0.025 | [2] 0.017 | [3] 0.048 | [4] -0.008 | [5] -0.071 | [6] -0.003 | [7] -0.002 | [8] -0.003 | [9] 0.001 | [10] -0.02

CUL7 isoform 2 (UniProt Q14999)
inactive: [1] 0.036 | [2] 0.149 | [3] 0.076 | [4] -0.129 | [5] -0.172 | [6] 0.043 | [7] 0.038 | [8] -0.111 | [9] 0.034 | [10] -0.048

CTTN isoform 2 (UniProt Q14247)
inactive: [1] -0.023 | [2] -0.006 | [3] -0.031 | [4] 0.028 | [5] 0.034 | [6] -0.025 | [7] 0.007 | [8] 0.034 | [9] -0.008 | [10] -0.035

CUL4B (UniProt Q13620)
inactive: [1] -0.01 | [2] 0.005 | [3] 0.012 | [4] 0.036 | [5] 0.003 | [6] 0.004 | [7] -0.105 | [8] 0.074 | [9] 0.007 | [10] 0.003
